Laboratory results: paper PMC6109181
These are yes or no findings as the source states them, for the method shown. Binding seen in cells or lysates may run through a third protein. Some binding calls cover weakened binding; strength is not graded here.

Sequences of proteins named here, by UniProt entry; tags and fusion partners are left off. Residues count along the entry.
UniProt P56480, residues 47-529: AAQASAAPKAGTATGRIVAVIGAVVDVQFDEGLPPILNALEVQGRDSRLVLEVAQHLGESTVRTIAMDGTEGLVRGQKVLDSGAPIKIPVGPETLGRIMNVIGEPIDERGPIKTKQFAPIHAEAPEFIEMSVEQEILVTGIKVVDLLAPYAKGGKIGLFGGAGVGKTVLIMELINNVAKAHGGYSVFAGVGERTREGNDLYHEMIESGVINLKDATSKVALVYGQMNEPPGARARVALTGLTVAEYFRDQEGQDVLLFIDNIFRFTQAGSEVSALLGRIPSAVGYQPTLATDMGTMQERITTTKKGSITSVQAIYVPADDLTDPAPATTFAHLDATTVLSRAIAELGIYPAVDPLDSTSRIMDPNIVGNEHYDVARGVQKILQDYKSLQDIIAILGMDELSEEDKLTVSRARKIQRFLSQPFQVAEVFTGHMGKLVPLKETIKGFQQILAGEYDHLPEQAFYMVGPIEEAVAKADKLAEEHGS
UniProt P58281, residues 88-960: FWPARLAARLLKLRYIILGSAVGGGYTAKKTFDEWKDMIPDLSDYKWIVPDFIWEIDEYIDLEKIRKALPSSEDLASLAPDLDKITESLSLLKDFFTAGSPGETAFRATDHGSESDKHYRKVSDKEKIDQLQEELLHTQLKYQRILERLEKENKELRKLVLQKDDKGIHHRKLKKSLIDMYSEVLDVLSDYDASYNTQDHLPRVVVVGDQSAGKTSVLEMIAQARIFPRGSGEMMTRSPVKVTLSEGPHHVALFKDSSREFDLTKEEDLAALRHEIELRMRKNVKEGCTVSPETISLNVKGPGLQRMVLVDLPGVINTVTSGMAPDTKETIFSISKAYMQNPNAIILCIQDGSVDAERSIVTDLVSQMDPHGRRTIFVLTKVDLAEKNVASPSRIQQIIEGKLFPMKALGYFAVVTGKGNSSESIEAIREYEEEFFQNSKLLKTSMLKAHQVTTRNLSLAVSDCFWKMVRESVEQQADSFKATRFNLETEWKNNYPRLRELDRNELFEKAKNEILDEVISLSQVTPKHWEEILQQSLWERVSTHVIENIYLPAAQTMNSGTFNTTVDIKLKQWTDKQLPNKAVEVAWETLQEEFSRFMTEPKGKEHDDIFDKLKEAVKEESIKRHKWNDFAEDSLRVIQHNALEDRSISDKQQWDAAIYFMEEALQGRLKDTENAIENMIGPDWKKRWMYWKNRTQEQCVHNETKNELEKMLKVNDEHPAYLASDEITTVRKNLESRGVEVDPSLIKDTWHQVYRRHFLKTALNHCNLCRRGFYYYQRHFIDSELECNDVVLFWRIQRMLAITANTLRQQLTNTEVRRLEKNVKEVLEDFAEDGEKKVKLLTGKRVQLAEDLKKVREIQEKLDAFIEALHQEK

Tests used:
[1] = target: ATP5B (ATP synthase β-subunit) (mouse (endogenous in mitochondria of MAFs)) (UniProt P56480); assay: co-IP; mitochondrial lysates (150 mM NaCl, 25 mM Tris-Cl pH 7.4, 1 mM EDTA, 5% glycerol, 0.1% Triton X-100) immunoprecipitated overnight at 4 °C with antibodies coupled to Protein A agarose beads; SDS-PAGE and immunoblot
[2] = target: Optic atrophy 1 (OPA1) (mouse (endogenous in mitochondria of MAFs or mouse heart)) (UniProt P58281); assay: as above
[3] = target: Optic atrophy 1 (OPA1) (mouse (endogenous in mitochondria of MAFs or mouse heart)) (UniProt P58281); assay: cross-linking; purified mitochondria (methods: mitochondrial extracts, 50 µg) treated with 10 mM of the zero-length crosslinker EDC for 30 min at 37 °C in PBS, quenched with 15 mM DTT; SDS-PAGE and immunoblot for OPA1 and ATP5B

Row | binding [1] | binding [2] | binding [3] | Substance
1 | binds | – | – | Optic atrophy 1 (OPA1) (from UniProt P58281 88-960)
2 | – | binds | binds | ATP5B (ATP synthase β-subunit) (from UniProt P56480 47-529)
